The test system of experiment [1] is ReNCell VM. In words: neuronal differentiation score (DCX+ cell fraction vs untreated, manual image score) (score (-3 to 3)); higher = more neuronal differentiation. The settings on record: 2 uM, 2 weeks.
In experiment [2] the test system is ReNCell VM. In words: dopaminergic neuron differentiation score (TH+ cell fraction vs untreated, manual image score) (score (0 to 3)); higher = more TH+ dopaminergic neuron differentiation. The settings on record: 2 uM, 4 weeks, BDNF 10 ng/ml + GDNF 10 ng/ml.

Counter-ions that a name gives are not always drawn. The list shows a part of the results. Single values are uncertain here, since repeats match poorly.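 Human fetal ventral-midbrain neural progenitor line ReNCell VM, differentiated without mitogens. Images stained for doublecortin (early neurons) or tyrosine hydroxylase (dopaminergic neurons) were scored by blinded raters against untreated wells (0 = no change). Repeats and both raters were averaged, and compounds averaging 2 or higher were picked as hits for retesting.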 *1 amine or outer side, *2 acyl side, *3 side chain or, on linkers, in order; H or OH if unused. Where a SMILES comes first, the peptide text is derived from it. [ ]: non-standard residue; d: D form. The star is where a group is joined. ξ: configuration not given here. X4 = O=C([C@H](N[*:1])C1CCC(O)CC1)[*:2]; X6 = O=C(C(N[*:1])C1CCC(O)C(Cl)C1)[*:2]; X5 = O=C(C(N[*:1])C1CCC(O)CC1)[*:2]; aThr = C[C@H](O)[C@H](N)C(=O)O; dOrn = NCCC[C@@H](N)C(=O)O; X3 = CCC/C=C\C=C/C(=O)*; ξN = NC(=O)CC(N)C(=O)O

For the compound `CC1CC(OC(=O)C(O)c2ccccc2)CC(C)(C)N1C` (centres undefined) [Eucatropine hydrochloride], in experiment [1] (library: Prestwick), the neuronal differentiation score is inactive: 0. For the same compound, the “dopaminergic neuron differentiation score” value in experiment [2] (library: Prestwick) is inactive: 0.
As for `CC(=O)OC/C=C(C)/C=C/C=C(C)/C=C/C1=C(C)CCCC1(C)C`, the neuronal differentiation score in experiment [1] (library: Spectrum) is inactive: 0. For the same compound, the “dopaminergic neuron differentiation score” value in experiment [2] (library: Spectrum) is inactive: 0.
As for `CC12CCC3C(CC3(C)C)C(C)(CCC1=O)O2` (centres undefined), the neuronal differentiation score in experiment [1] (library: Spectrum) is inactive: 0. Moreover, the “dopaminergic neuron differentiation score” value in experiment [2] (library: Spectrum) was inactive: 0.
On to `C=C[C@H]1CN2CC[C@H]1C[C@H]2[C@H](O)c1ccnc2ccc(OC)cc12` [Quinine sulfate], for which, in experiment [1] (library: LOPAC), the neuronal differentiation score is inactive: 0. In experiment [2] (library: LOPAC), the “dopaminergic neuron differentiation score” value was inactive: 0.
As for `Cn1cnc2c1c(=O)[nH]c(=O)n2C`, the neuronal differentiation score in experiment [1] (library: Spectrum) is inactive: 0. Further, in experiment [2] (library: Spectrum), the “dopaminergic neuron differentiation score” value was inactive: 0.
Turning to `CCC/C=C\C=C/C(=O)N[C@@H](CC(N)=O)C(=O)NC(CC(N)=O)C(=O)N[C@@H](C(=O)N[C@H](CCCN)C(=O)N[C@@H](C(=O)N[C@@H](C(=O)N[C@@H](C(=O)N[C@H](C(=O)N[C@@H](Cc1ccccc1)C(=O)N[C@H](CCCN)C(=O)NC(C(=O)N[C@H](C(=O)NC(C(=O)NCC(=O)N[C@@H](CC(C)C)C(=O)N[C@H](C)C(=O)NC(C(=O)O)C1CCC(O)C(Cl)C1)C1CCC(O)CC1)[C@H](C)O)C1CCC(O)CC1)[C@H](C)O)C1CCC(O)CC1)C1CCC(O)CC1)[C@H](C)O)C1CCC(O)CC1` (some centres undefined) [RAMOPLANIN [A2 shown; 2mM]] (X3-N[ξN][X4][dOrn][dT][X4][X4][aThr]F[dOrn][X5][aThr][X5]GL[dA][X6]-OH), the neuronal differentiation score in experiment [1] (library: Spectrum) is inactive: 0. In experiment [2] (library: Spectrum), the “dopaminergic neuron differentiation score” value is inactive: 0.
In the case of `O=C(O)C1=CC(=C(c2ccc(O)c(C(=O)O)c2)c2ccc(O)c(C(=O)O)c2)C=CC1=O`, the neuronal differentiation score in experiment [1] (library: Spectrum) is inactive: 0. Also, the “dopaminergic neuron differentiation score” value in experiment [2] (library: Spectrum) is inactive: 0.
Take `C[C@@]1(O)[C@H](O)[C@@H](CO)O[C@H]1n1cnc2c(NC3CCCC3)nc(Cl)nc21`: the neuronal differentiation score in experiment [1] (library: Tocriscreen) was inactive: 1. The “dopaminergic neuron differentiation score” value in experiment [2] (library: Tocriscreen) is inactive: 0.
On to `Cc1ccc(NC(=O)c2ccc(CN3CCN(C)CC3)cc2)cc1Nc1nccc(-c2cccnc2)n1` [Imatinib], for which the neuronal differentiation score in experiment [1] (library: Prestwick) is inactive: 0. Besides, the “dopaminergic neuron differentiation score” value in experiment [2] (library: Prestwick) was inactive: 0.
Consider `NCCCCC(=O)O` [5-Aminovaleric acid hydrochloride], for which the neuronal differentiation score in experiment [1] (library: LOPAC) was inactive: 0. The “dopaminergic neuron differentiation score” value in experiment [2] (library: LOPAC) is inactive: 0.
Consider `CCCCC[C@H](O)/C=C/[C@@H]1[C@@H](C/C=C\CCCC(=O)O)[C@@H](O)C[C@H]1O` [Dinoprost trometamol], for which the neuronal differentiation score in experiment [1] (library: Prestwick) is inactive: 0. The “dopaminergic neuron differentiation score” value in experiment [2] (library: Prestwick) is inactive: 0.
Regarding `C[N+](C)(C)CCCCCC[N+](C)(C)C`, in experiment [1] (library: Spectrum), the neuronal differentiation score was inactive: 0. Further, the “dopaminergic neuron differentiation score” value in experiment [2] (library: Spectrum) is inactive: 0.
Consider `COc1ccc2cc3[n+](cc2c1OC)CCc1cc2c(cc1-3)OCO2` [Berberine chloride], for which the neuronal differentiation score in experiment [1] (library: Phytochemical) was inactive: 0. In experiment [2] (library: Phytochemical), the “dopaminergic neuron differentiation score” value is inactive: 0.
As for `O=C1OC(OC(=O)c2cccnc2Nc2cccc(C(F)(F)F)c2)c2ccccc21` (centres undefined) [Talniflumate], the neuronal differentiation score in experiment [1] (library: Tocriscreen) was inactive: 0. Also, the “dopaminergic neuron differentiation score” value in experiment [2] (library: Tocriscreen) was inactive: 0.
For the compound `CCOC(=O)[C@H](CCc1ccccc1)N[C@@H](C)C(=O)N1Cc2cc(OC)c(OC)cc2C[C@H]1C(=O)O` [Moexipril hydrochloride], the neuronal differentiation score in experiment [1] (library: Tocriscreen) was inactive: 0. Further, the “dopaminergic neuron differentiation score” value in experiment [2] (library: Tocriscreen) was inactive: 0.
Regarding `C[N+]1(C)CCC(OC(=O)C(c2ccccc2)c2ccccc2)CC1`, in experiment [1] (library: Tocriscreen), the neuronal differentiation score is inactive: 0. For the same compound, the “dopaminergic neuron differentiation score” value in experiment [2] (library: Tocriscreen) was inactive: 0.
In the case of `Cc1cc(C)c(S(=O)(=O)Nc2ccccc2C(F)(F)F)c(C)c1`, the neuronal differentiation score in experiment [1] (library: Tocriscreen) is inactive: 0. Besides, the “dopaminergic neuron differentiation score” value in experiment [2] (library: Tocriscreen) is inactive: 0.
Take `C=C[C@H]1CN2CC[C@H]1C[C@H]2[C@H](O)c1ccnc2ccc(OC)cc12` [Quinine dihydrochloride]: the neuronal differentiation score in experiment [1] (library: Phytochemical) is inactive: 0. Besides, the “dopaminergic neuron differentiation score” value in experiment [2] (library: Phytochemical) was inactive: 0.
Regarding `CC(C)NCC(O)c1ccc(O)c(O)c1` (single isomer, unassigned; (+)) [(+)-Isoproterenol (+)-bitartrate salt], the neuronal differentiation score in experiment [1] (library: Prestwick) was inactive: 1. For the same compound, in experiment [2] (library: Prestwick), the “dopaminergic neuron differentiation score” value is inactive: 1.
`CC(C)NCC(O)c1cc(O)cc(O)c1` (centres undefined) [Metaproterenol sulfate, orciprenaline sulfate]: in experiment [1] (library: Prestwick), the neuronal differentiation score is inactive: 0. Moreover, the “dopaminergic neuron differentiation score” value in experiment [2] (library: Prestwick) was inactive: 0.
`CN(C)CCOC(=O)C(c1ccccc1)C1(O)CCCC1` (centres undefined) [Cyclopentolate hydrochloride]: the neuronal differentiation score in experiment [1] (library: Prestwick) is inactive: 0. The “dopaminergic neuron differentiation score” value in experiment [2] (library: Prestwick) was inactive: 0.
In the case of `CCN(CC)C(=O)C1(c2ccccc2)CC1CN` (centres undefined), in experiment [1] (library: Spectrum), the neuronal differentiation score was inactive: 0. The “dopaminergic neuron differentiation score” value in experiment [2] (library: Spectrum) is inactive: 0.
Consider `Cn1c(=O)c2[nH]c(C3CCCC3)nc2n(C)c1=O` [8-Cyclopentyl-1,3-dimethylxanthine], for which, in experiment [1] (library: LOPAC), the neuronal differentiation score is inactive: -1. Besides, the “dopaminergic neuron differentiation score” value in experiment [2] (library: LOPAC) is inactive: 0.
`COC(=O)[C@H](Cc1ccccc1)NC(=O)[C@@H](N)CC(=O)O` (H-Asp-Phe-OMe): the neuronal differentiation score in experiment [1] (library: Spectrum) is inactive: 0. Also, in experiment [2] (library: Spectrum), the “dopaminergic neuron differentiation score” value is inactive: 0.
Take `C[C@@H]1C(=O)NC2=Nc3cccc(Cl)c3CN21` [Quazinone]: the neuronal differentiation score in experiment [1] (library: LOPAC) was inactive: 1. In addition, the “dopaminergic neuron differentiation score” value in experiment [2] (library: LOPAC) is inactive: 0.
In the case of `COc1c2c(cc3c1C(NC(N)=O)[N+](C)(C)CC3)OCO2` (centres undefined), in experiment [1] (library: Natural), the neuronal differentiation score was inactive: 0. In experiment [2] (library: Natural), the “dopaminergic neuron differentiation score” value was inactive: 0.
Regarding `C[C@@]12C[C@@]3(O)O[C@@H](O1)[C@]1(COC(=O)c4ccccc4)[C@H]3C[C@@]12O[C@@H]1O[C@H](CO)[C@@H](O)[C@H](O)[C@H]1O`, in experiment [1] (library: Spectrum), the neuronal differentiation score was inactive: 0. Moreover, the “dopaminergic neuron differentiation score” value in experiment [2] (library: Spectrum) was inactive: 0.
For `CCCc1c(-c2ccc(O)cc2)nn(-c2ccc(O)cc2)c1-c1ccc(O)cc1` [1,3,5-tris(4-hydroxyphenyl)-4-propyl-1H-pyrazole], in experiment [1] (library: LOPAC), the neuronal differentiation score was inactive: 0. The “dopaminergic neuron differentiation score” value in experiment [2] (library: LOPAC) was inactive: 0.
On to `O=C(O)COCCN1CCN(C(c2ccccc2)c2ccc(Cl)cc2)CC1` (centres undefined), for which, in experiment [1] (library: Spectrum), the neuronal differentiation score was inactive: 0. Besides, the “dopaminergic neuron differentiation score” value in experiment [2] (library: Spectrum) is inactive: 1.
As to `CNc1cc(NS(=O)(=O)c2ccc(N)cc2)nc(NC)n1` [Ro 04-6790 dihydrochloride], the neuronal differentiation score in experiment [1] (library: LOPAC) was inactive: 0. Also, in experiment [2] (library: LOPAC), the “dopaminergic neuron differentiation score” value is inactive: 0.
Turning to `O=C1CC2(CCCC2)CC(=O)N1CCCCN1CCN(c2ncccn2)CC1`, the neuronal differentiation score in experiment [1] (library: Spectrum) was inactive: 0. For the same compound, the “dopaminergic neuron differentiation score” value in experiment [2] (library: Spectrum) is inactive: 0.
As for `Oc1ncnc2[nH]ncc12`, the neuronal differentiation score in experiment [1] (library: Spectrum) was inactive: 0. Moreover, the “dopaminergic neuron differentiation score” value in experiment [2] (library: Spectrum) is inactive: 0.

Source of the values: the supplement of paper PMC4635364.
